The record followed here is article doi:10.1101/2025.05.23.655736 (bioRxiv, 2025).

The target of this test is Streptococcus pneumoniae FtsEX complex (Streptococcus pneumoniae). The test can be described thus: co-purification.

Changes are numbered by the printed parent chain. Numbers in names are those of the source. Results are given in words; binding and its absence hold for the method and conditions named. In cells and extracts the contact can be indirect. A result given as binding can be weak or reduced; the word gives no strength.

B1: Streptococcus pneumoniae PcsB, wild type, with PelB leader (in the FtsEX-PcsB complex) (enzyme, UniProt Q8DMY4 28-392)
chain: ETTDDKIAAQDNKISNLTAQQQEAQKQVDQIQEQVSAIQAEQSNLQAENDRLQAESKKLEGEITELSKNIVSRNQSLEKQARSAQTNGAVTSYINTIVNSKSITEAISRVAAMSEIVSANNKMLEQQKADKKAISEKQVANNDAINTVIANQQKLADDAQALTTKQAELKAAELSLAAEKATAEGEKASLLEQKAAAEAEARAAAVAEAAYKEKRASQQQSVLASANTNLTAQVQAVSESAAAPVRAKVRPTYSTNASSYPIGECTWGVKTLAPWAGDYWGNGAQWATSAAAAGFRTGSTPQVGAIACWNDGGYGHVAVVTAVESTTRIQVSESNYAGNRTIGNHRGWFNPTTTSEGFVTYIYAD
In the case of B1, the binding result was “binds”.

B2: Streptococcus pneumoniae PcsB (A194C/A231C) (enzyme, UniProt Q8DMY4 28-392)
chain: B1 chain with A167C, A204C
In the case of B2, the binding entry is recorded as “binds”.
